The record followed here is article doi:10.1101/2022.09.28.509909.

Chains of the proteins cited; added tags and fusions are not shown.
UniProt P46937: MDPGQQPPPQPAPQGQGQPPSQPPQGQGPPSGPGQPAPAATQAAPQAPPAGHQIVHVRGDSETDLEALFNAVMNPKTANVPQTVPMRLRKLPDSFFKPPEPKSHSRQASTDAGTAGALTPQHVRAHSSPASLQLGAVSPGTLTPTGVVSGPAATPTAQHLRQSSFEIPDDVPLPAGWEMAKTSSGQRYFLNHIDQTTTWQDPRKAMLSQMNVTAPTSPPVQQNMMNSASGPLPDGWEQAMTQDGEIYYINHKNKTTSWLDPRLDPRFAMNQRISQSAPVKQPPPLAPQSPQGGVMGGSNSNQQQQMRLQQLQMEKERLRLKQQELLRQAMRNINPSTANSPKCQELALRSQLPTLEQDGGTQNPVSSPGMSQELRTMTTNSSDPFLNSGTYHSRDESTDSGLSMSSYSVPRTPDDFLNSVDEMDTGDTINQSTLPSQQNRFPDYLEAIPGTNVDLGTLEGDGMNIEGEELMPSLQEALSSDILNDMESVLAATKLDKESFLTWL

No constants are given. Whether binding was seen depends on the method and setting. In cells and extracts the contact can be indirect. Some results given as binding are weak or reduced against the parent protein; the word gives no strength. Where a sequence is shown, tags or fusion partners need not be part of it.

This test has as its target Flag-YAP1 (Yes-associated protein 1) (UniProt P46937). The test can be described thus: co-IP.

B1: Myc-TFCP2 (Transcription Factor CP2) (protein, UniProt Q12800 1-502)
chain: MAWALKLPLADEVIESGLVQDFDASLSGIGQELGAGAYSMSDVLALPIFKQEESSLPPDNENKILPFQYVLCAATSPAVKLHDETLTYLNQGQSYEIRMLDNRKLGELPEINGKLVKSIFRVVFHDRRLQYTEHQQLEGWRWNRPGDRILDIDIPMSVGIIDPRANPTQLNTVEFLWDPAKRTSVFIQVHCISTEFTMRKHGGEKGVPFRVQIDTFKENENGEYTEHLHSASCQIKVFKPKGADRKQKTDREKMEKRTPHEKEKYQPSYETTILTECSPWPEITYVNNSPSPGFNSSHSSFSLGEGNGSPNHQPEPPPPVTDNLLPTTTPQEAQQWLHRNRFSTFTRLFTNFSGADLLKLTRDDVIQICGPADGIRLFNALKGRMVRPRLTIYVCQESLQLREQQQQQQQQQQKHEDGDSNGTFFVYHAIYLEELTAVELTEKIAQLFSISPCQISQIYKQGPTGIHVLISDEMIQNFQEEACFILDTMKAETNDSYHIILK
Take B1: the binding entry is on record as “binds”.
